In US8961933B2, “Process for the preparation of aqueous solutions of hyperpolarized molecules” (Bracco Imaging S.p.A., priority 2008, dated 2015):

Legend:
[1] = Hyperpolarization test: 13C NMR signal enhancement after para-hydrogenation (PHIP); conditions: for 13C signal enhancement after para-hydrogenation and field cycling: acetone-d6, 14 T, 298 K
[2] = Phase-transfer extraction of the hyperpolarized product into water: 13C signal enhancement and amount transferred; assay type: physicochemical

Question: With `COCCOCCOC(=O)/C=C\C(=O)OCCOCCOC` [B] as the compound, how does the “13C signal enhancement after para-hydrogenation and field cycling” value [1] read?
Answer: Its value is “about 250 times”.

Question: What about the “13C signal enhancement recorded immediately after parahydrogenation” value ([1]; acetone-d6, para-H2 52% enriched, before field cycling) of the same compound?
Answer: Its value is 1500 times.

Question: What about the “13C signal enhancement after field cycling and extraction in water” value ([2]; hydrogenation in CDCl3/acetone-d6 (6:1), extraction into D2O, 14 T) of the same compound?
Answer: The value was 100 times.

Question: For `C[Si](C)(C)OC(=O)/C=C\C(=O)O[Si](C)(C)C` [D], which “13C signal enhancement after para-hydrogenation and field cycling” value [1] is on record?
Answer: Its value is “about 700 times”.

Question: With `O=C(O)CCC(=O)O` [succinic acid] as the compound, how does the “13C signal enhancement after field cycling, hydrolysis and phase extraction” value ([2]; maleic anhydride not 13C enriched, CDCl3/acetone-d6 6:1, 0.25 M NaOH in D2O, signal at 174.65 ppm) read?
Answer: The value was “about 30 times”.
